In the supplement of paper PMC5949888:
Most values lie at the floor of the assay. Slopes are relative: functional sequences can read slightly below zero.

System: Saccharomyces cerevisiae PS128 hsf1 delta, HSF1(1-493) fusion
Test: growth estimate (transactivation domain function in HSF1 fusion, heat-shock survival) (a.u. (slope of normalised read count over time)); higher = stronger growth at 37°C, i.e. more transactivation activity
Conditions: library: random library
Experimental: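 Random 60-nt DNA library encoding peptides of up to 20 aa, fused to the C-terminus of yeast HSF1 residues 1-493 (C-terminal TAD deleted) and expressed from the native HSF1 promoter on a CEN plasmid in hsf1-deleted S. cerevisiae PS128. Cells were selected at 37°C on -trp 5-FOA plates for 0, 2, 4, 6 and 8 days and amplicons were sequenced. Growth estimate is the slope of a robust linear fit of total-sum-normalised read counts (normalised to the first time point) over time, using at least 2 replicates. Sequences are classed functional (TAD activity) above a threshold of -0.13, set from stop-codon control sequences.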

Row | Substance | growth estimate
1 | EFCCSPGTHSLPGLYRRTCM | < -0.25
2 | EFCQAKLRQPGYFTVAVCLF | < -0.25
3 | EFDGY | < -0.25
4 | EFFQYGAPRVRIQTHMDPLF | < -0.25
5 | EFGSPWCRGAMSNRWIFHIR | < -0.25
6 | EFISASRASFYNRFIKWFAS | < -0.25
7 | EFLAELRVMRSLGIIVK | < -0.25
8 | EFLHAIPELTEGRGTRKMLA | < -0.25
9 | EFNHVPLAGFL | < -0.25
10 | EFRWVRGGRAKI | < -0.25
11 | EFSQRLVKLRVIGY | < -0.25
12 | EFT | < -0.25
13 | EFWIVRYAVVDYLGSECFAG | < -0.25
14 | EFYRTTGGRLRIGVCRCALF | < -0.25
15 | EGCLAQHI | < -0.25
16 | EGCVGGRQGAACTRVLQGVT | < -0.25
17 | EGEFIDTPPS | < -0.25
18 | EGGAAA | < -0.25
19 | EGIRW | < -0.25
20 | EGLMCTTLRHNESAYLRRGP | < -0.25
21 | EGLTSENMIVEILKPPCVQH | < -0.25
22 | EGMAA | < -0.25
23 | EGMGLYEPWSWFPVGLCEG | < -0.25
24 | EGNGGLEIDWIA | < -0.25
25 | EGQMSS | < -0.25

Part of the list above, field by field:
EFWIVRYAVVDYLGSECFAG
  growth estimate: < -0.25
EGCVGGRQGAACTRVLQGVT
  growth estimate: < -0.25

(further entries)

Row | Substance | growth estimate
26 | EGQS | < -0.25
27 | EGQT | < -0.25
28 | EGSDTRVYGTVE | < -0.25
29 | EGSRPGCARIISYRFSLYRM | < -0.25
30 | EGSWVGLEGPWVDVMRHLPL | -0.216
31 | EGTGWGNI | < -0.25
32 | EGTL | < -0.25
33 | EGTSELGSVILGVR | < -0.25
34 | EGVVGLSKAWVARVHHVVGS | < -0.25
35 | EGWAGKRYGVA | < -0.25
36 | EHDTSTFSTLTSIHGMVVNW | < -0.25
37 | EHEA | < -0.25
38 | EHGLWIVS | < -0.25
39 | EHGPSLSKRST | -0.243
40 | EHICRVVIARLTWVLRQV | < -0.25
41 | EHIRIDWQHVLGRPRGRRKS | < -0.25
42 | EHNVPFASTASGTISMFLSN | < -0.25
43 | EHRACATHIELLVLFQRCTS | < -0.25
44 | EHRVNPL | < -0.25
45 | EHWSDQPGSALVQSRN | < -0.25
46 | EICYLVQRMLVRGELKFLCT | < -0.25
47 | EIFGIMNQCQFPSLKDGQMR | < -0.25
48 | EIFSGDRARGRGDMQCLVKR | < -0.25
49 | EIH | -0.25
50 | EIHGR | -0.25

Row | Substance | growth estimate
51 | EIIASSCNFHCESRVIGWAV | < -0.25
52 | EILESYAGQLWNSSDGRSFY | < -0.25
53 | EIR | < -0.25
54 | EITPAHLLDMLRIAI | < -0.25
55 | EIVRIGPC | < -0.25
56 | EIVRYFNYTPSQGLLSVAVR | < -0.25
57 | EKE | < -0.25
58 | EKEGNLELQRTRGTI | < -0.25
59 | EKG | < -0.25
60 | EKGGQPRFMLCL | < -0.25
61 | EKIGSPCK | -0.245
62 | EKKGLISAMLREADAVATSP | < -0.25
63 | EKLFLLDCSPSPRRCTLVEP | < -0.25
64 | EKLWG | < -0.25
65 | EKPSSNPDGTISLLRKHWPQ | < -0.25
66 | EKRHDGRSWFEGH | < -0.25
67 | EKRSSLVSLMGDPQPLASRP | < -0.25
68 | EKSLSTKRYELMKAGVGLIT | < -0.25
69 | EKVARRYTMGNPR | < -0.25
70 | EKVVRVPYPGSSCGPLTFHP | < -0.253
71 | ELCGVC | < -0.25
72 | ELCIQGFSEQRPESDNRCGS | < -0.25
73 | ELCPLGHSRTPKCLKIPLQC | < -0.25
74 | ELDASARGASQLVKGVPNAP | < -0.25
75 | ELDF | < -0.25

Row | Substance | growth estimate
76 | ELDICCR | < -0.25
77 | ELEPGKAGFVIDGGA | < -0.25
78 | ELGAVKGPGGITLEERNVCL | < -0.25
79 | ELGDSCYSGKISGQPLLGLA | < -0.25
80 | ELGLQRTCRYWLTGKTSARV | < -0.25
81 | ELLAGCLPSLRRQTE | < -0.25
82 | ELLGSRLKSGRTQSDL | < -0.25
83 | ELLMVERSDIWRALF | < -0.25
84 | ELLRISMHLRLERDPWPTCV | < -0.25
85 | ELMLDLLTRRHPF | < -0.25
86 | ELNRRSGDDSLLAVRYLSAA | < -0.25
87 | ELQCTSRIATMFISPSNAAA | 0.215
88 | ELQSVRESETR | < -0.25
89 | ELS | < -0.25
90 | ELSQRRGLLASAVRCSTLAP | < -0.25
91 | ELVGISAR | < -0.25
92 | ELVGSRASLLAGTVFLLCH | < -0.25
93 | ELVSVRQPVIVSQARLIKSH | < -0.25
94 | ELWGT | < -0.25
95 | ELWVQARSIGVVLGASRDPS | < -0.25
96 | EMGGWGPTLTHP | 0.0974
97 | EMLALQPLL | < -0.25
98 | EMLRELRTRAVPRATLVLDE | < -0.25
99 | EMLRVVRSWRIIRLRFFGHA | < -0.25
100 | EMQR | < -0.25

Row | Substance | growth estimate
101 | EMRLSHFVVRIWVVTHIQQT | < -0.25
102 | EMRVGCRPRAESCEGSLFEG | < -0.25
103 | EMSLLLGFANSGL | < -0.25
104 | EMSVRECHSLVRVMIVQVRI | < -0.25
105 | EMVARAGYVYPPGFREAIKG | < -0.25
106 | ENDRFFSGTTPDHIRGAVHC | < -0.25
107 | ENEYTRSDHTSSEPGLPGLC | < -0.25
108 | ENGNLSSDSVIIGPRCDGLT | < -0.25
109 | ENLEVKVGISSLPSTPSKYV | < -0.25
110 | ENMWGG | < -0.25
111 | ENPGGRGGTWH | < -0.25
112 | ENPPKWLTIKTAMQSGVLWG | < -0.25
113 | ENPTPSGAHVLSGSFVLRFR | < -0.25
114 | ENW | < -0.25
115 | EPDTDGGEVFYAMTGARTRA | < -0.25
116 | EPEGRRNTLMLR | < -0.25
117 | EPFLE | < -0.25
118 | EPGKYNSTATHGTNLGNSAI | < -0.25
119 | EPGYDLIG | < -0.25
120 | EPKELKSDTSHAPKRVIIIR | < -0.25
121 | EPLLEMQTQAQGQYSTCPSP | < -0.25
122 | EPLPE | < -0.25
123 | EPLSATI | < -0.25
124 | EPLSRLHYQLAECCGS | -0.229
125 | EPSGDFTDHNG | < -0.25

Some of the entries above in another layout.
Row,Substance,growth estimate
91,ELVGISAR,< -0.25
92,ELVGSRASLLAGTVFLLCH,< -0.25
93,ELVSVRQPVIVSQARLIKSH,< -0.25
95,ELWVQARSIGVVLGASRDPS,< -0.25
96,EMGGWGPTLTHP,0.0974
98,EMLRELRTRAVPRATLVLDE,< -0.25
99,EMLRVVRSWRIIRLRFFGHA,< -0.25
100,EMQR,< -0.25
101,EMRLSHFVVRIWVVTHIQQT,< -0.25
102,EMRVGCRPRAESCEGSLFEG,< -0.25
103,EMSLLLGFANSGL,< -0.25
104,EMSVRECHSLVRVMIVQVRI,< -0.25
105,EMVARAGYVYPPGFREAIKG,< -0.25
106,ENDRFFSGTTPDHIRGAVHC,< -0.25
107,ENEYTRSDHTSSEPGLPGLC,< -0.25
108,ENGNLSSDSVIIGPRCDGLT,< -0.25
109,ENLEVKVGISSLPSTPSKYV,< -0.25
111,ENPGGRGGTWH,< -0.25
112,ENPPKWLTIKTAMQSGVLWG,< -0.25
113,ENPTPSGAHVLSGSFVLRFR,< -0.25
114,ENW,< -0.25
115,EPDTDGGEVFYAMTGARTRA,< -0.25
116,EPEGRRNTLMLR,< -0.25
117,EPFLE,< -0.25
118,EPGKYNSTATHGTNLGNSAI,< -0.25
119,EPGYDLIG,< -0.25
120,EPKELKSDTSHAPKRVIIIR,< -0.25
121,EPLLEMQTQAQGQYSTCPSP,< -0.25
122,EPLPE,< -0.25
123,EPLSATI,< -0.25
124,EPLSRLHYQLAECCGS,-0.229
125,EPSGDFTDHNG,< -0.25

Continuation.

Row | Substance | growth estimate
126 | EPSIRW | < -0.25
127 | EPSQSRPGIVVEGLKF | < -0.25
128 | EPTSQGKGARDFRLKDQLVS | < -0.25
129 | EPYA | < -0.25
130 | EPYHYIKH | < -0.25
131 | EQCTTFEGCWDDTQWRLFAP | 0.586
132 | EQE | < -0.25
133 | EQEDDVPVIDWGASRWH | < -0.25
134 | EQGNPLRDREDTRQTPARAA | < -0.25
135 | EQGRLRKPGARDWSIRSDYS | < -0.25
136 | EQGWIKITNNHLLYHHQCRT | < -0.25
137 | EQLFCYAMLEVQASTRRDKS | < -0.25
138 | EQRSPTRGIGIMINIAMEPL | < -0.25
139 | EQTSQSNSLSFWP | < -0.25
140 | EQVRSSCERLYFMVGTCEYA | < -0.25
141 | EQVRTDVVVTFFTILGPSVG | < -0.25
142 | ERAHRDRYFNSAVNSVTHRM | < -0.25
143 | ERCARSRAWIHFDFFDMIDV | < -0.25
144 | ERDTLMVSRI | < -0.25
145 | EREGLYRPDSHP | < -0.25
